Assay results from article PMC6735515.
These are yes or no findings as the source states them, for the method shown. In cells and extracts the contact can be indirect.

Chains of the proteins cited; added tags and fusions are not shown. Lines headed by an entry give the natural chain unless they say otherwise; changes in a name come on top. Residues count along the entry.
UniProt Q03135: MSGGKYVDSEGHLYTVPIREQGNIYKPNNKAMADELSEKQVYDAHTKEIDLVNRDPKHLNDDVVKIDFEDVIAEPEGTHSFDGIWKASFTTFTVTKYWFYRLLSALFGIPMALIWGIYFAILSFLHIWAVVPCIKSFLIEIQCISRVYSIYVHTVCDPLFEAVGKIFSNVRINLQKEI
UniProt Q9NR96, residues 26-1032: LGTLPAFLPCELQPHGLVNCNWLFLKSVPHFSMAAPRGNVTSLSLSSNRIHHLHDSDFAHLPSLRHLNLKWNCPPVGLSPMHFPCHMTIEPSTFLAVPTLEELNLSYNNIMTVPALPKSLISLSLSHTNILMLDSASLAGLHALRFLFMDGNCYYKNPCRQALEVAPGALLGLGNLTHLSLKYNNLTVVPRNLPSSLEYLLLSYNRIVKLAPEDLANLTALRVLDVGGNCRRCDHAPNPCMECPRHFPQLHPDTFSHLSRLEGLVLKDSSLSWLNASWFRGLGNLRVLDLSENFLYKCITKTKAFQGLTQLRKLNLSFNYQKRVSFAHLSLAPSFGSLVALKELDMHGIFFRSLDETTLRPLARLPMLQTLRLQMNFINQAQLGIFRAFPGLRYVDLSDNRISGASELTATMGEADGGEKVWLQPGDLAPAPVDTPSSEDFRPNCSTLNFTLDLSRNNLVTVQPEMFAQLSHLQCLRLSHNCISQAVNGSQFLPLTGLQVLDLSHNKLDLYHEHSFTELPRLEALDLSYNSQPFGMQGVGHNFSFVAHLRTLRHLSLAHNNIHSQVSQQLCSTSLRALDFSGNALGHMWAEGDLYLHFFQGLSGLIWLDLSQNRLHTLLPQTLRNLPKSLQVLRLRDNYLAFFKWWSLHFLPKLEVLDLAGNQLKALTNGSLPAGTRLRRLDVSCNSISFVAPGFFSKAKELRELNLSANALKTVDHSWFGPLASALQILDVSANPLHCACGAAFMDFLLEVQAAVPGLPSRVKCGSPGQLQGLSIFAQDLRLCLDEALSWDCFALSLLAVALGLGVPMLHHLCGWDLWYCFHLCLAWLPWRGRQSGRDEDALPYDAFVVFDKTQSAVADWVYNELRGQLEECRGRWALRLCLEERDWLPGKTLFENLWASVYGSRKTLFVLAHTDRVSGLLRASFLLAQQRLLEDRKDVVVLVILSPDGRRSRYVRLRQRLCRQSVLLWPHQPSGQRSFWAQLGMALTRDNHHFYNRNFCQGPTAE

Target: Cav-1 ΔCSD (UniProt Q03135)
Test: co-IP; H9c2 cells co-transfected with Cav-1 and TLR9 (wild type or mutant), lysates 24 h after transfection, immunoprecipitation with anti-Cav-1 or anti-TLR9 antibodies, immunoblot

- binding: no binding
Substance: TLR9 WT (from UniProt Q9NR96 26-1032) (receptor)
